In PubChem BioAssay AID2685 (National Center for Advancing Translational Sciences (NCATS), 2010):
Several values for one entry are separate records, joined by “and”; a condition that tells them apart may be missing. Equal entries are not always repeated. This is one part of the list. Shown are side measurements of this screen, not its main read-out; they come without a call. Compounds called inactive in the main read-out are mostly missing here. The note in brackets gives the kind of curve behind each potency; many fits are weak.

Assay: qHTS Assay for Lipid Storage Modulators in Drosophila S3 Cells;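 for cell number change: cells counted by Cell Tracker Red CMTPX staining in the red channel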
Conditions: BODIPY lipid droplet fluorescence, 18-24 h; for cell number change: measured here: cell count max response, cells fed with added oleic acid
Method in brief: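 Drosophila S3 cells loaded with oleic acid (400 uM, as added) and compounds at several concentrations; lipid droplets imaged by 488-nm laser-scanning cytometry, 500–530 nm intensity and object ratio to cell channel. Percent activity normalized to 20 uM Triacsin C.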

[1] = measured here: cell number channel AC50, cells fed with added oleic acid
[2] = measured here: lipid fluorescence (Fed channel) AC50, cells fed with added oleic acid

Row | Compound | cell number change | AC50 [1] | AC50 [2]
1 | C/C(=C/c1oc2ccc(O)cc2c1[N+](=O)[O-])N(C)C | -58.1% | 8.2 µM [falling, partial curve] | 
2 | CCC(=O)N1CCc2cc(S(=O)(=O)NCCCN3CCN(Cc4ccccc4)CC3)ccc21 | 30.5% | 9.2 µM [rising, partial curve] | 
3 | COc1ccccc1C(=O)Nc1ccc2c(c1)CCCN2C(=O)c1cccs1 | -12.8% |  | 4.11 µM [falling, partial curve, poor fit]
4 | COc1ccc(CNC(=O)C(C)Sc2ccc(C)cc2)cc1 (stereo not drawn) | 8.87% |  | 0.146 µM [rising, full curve]
5 | CCOc1ccccc1CNc1ncnc2ccc(-c3c(C)noc3C)cc12 | 4.97% and -31.4% | 0.00461 µM [falling, full curve, poor fit] | 14.6 µM [falling, partial curve, poor fit] and 32.6 µM [falling, single point]
6 | C=CCCC(=O)NC1CCCc2c1cnn2-c1ccccc1F (stereo not drawn) | -55% | 20.6 µM [falling, single point] | 7.31 µM [falling, partial curve]
7 | COc1ccc2cc(C=O)n(C)c2c1 | -4.41% | 1.03 µM [rising, single point] | 11.6 µM [rising, single point]
8 | CCOCCCNC(=S)N(CCN(C)C)Cc1cc2cc3c(cc2[nH]c1=O)OCCO3 | 9.09% | 0.092 µM [rising, full curve, poor fit] | 0.731 µM [falling, full curve, poor fit]
9 | O=C(CCN1C(=O)/C(=C/c2ccccc2F)SC1=S)NCCc1ccc(O)cc1 | 32% | 29.1 µM [rising, single point] | 29.1 µM [falling, single point]
10 | Cc1noc(C)c1S(=O)(=O)Nc1ccc(C(=O)NC2CCCCC2C)cc1 (stereo not drawn) |  | 6.51 µM [falling, single point] | 
11 | COc1ccc(Cl)cc1NC(=O)CCc1nnc2ccc(N3CCN(C)CC3)nn12 | -44.9% | 29.1 µM [falling, single point] | 0.13 µM [falling, full curve, poor fit]
12 | COc1cc(NC(=O)CSc2nnc3c(C)cc4cc(C)cc(C)c4n23)c(C(=O)O)cc1OC | -40.3% | 5.8 µM [falling, partial curve, poor fit] | 1.84 µM [falling, full curve]
13 | Cc1ccc(-n2nnnc2SC(C)C(=O)Nc2ccc(Cl)cn2)cc1 (stereo not drawn) | -22.2% |  | 29.1 µM [falling, single point]
14 | CCOC(=O)C1=C(CSc2nncn2C)NC(=O)NC1c1cc(OCC)ccc1OCC (stereo not drawn) | -121% | 16.4 µM [falling, partial curve, poor fit] | 6.51 µM [falling, single point]
15 | Cc1nc(NC(=O)CSc2nnc(N)s2)c(Cl)cc1Cl |  | 0.651 µM [rising, partial curve, poor fit] | 
16 | CC(=O)N1CCN=C1SCc1ccccc1F | 12.3% |  | 29.1 µM [falling, partial curve, poor fit]
17 | CCN(C(=O)COC(=O)c1ccc(OC)c(S(=O)(=O)N2CCCc3ccccc32)c1)C1CCS(=O)(=O)C1 (stereo not drawn) | -81% | 14.6 µM [falling, partial curve] | 
18 | Cn1c(SCC(=O)c2c(N)n(C)c(=O)n(C)c2=O)nnc1-c1ccc(F)cc1 | 1.18% |  | 

Row | Compound | cell number change | AC50 [1] | AC50 [2]
19 | CCN(CC(=O)Nc1ccc(Br)cc1)C(=O)c1nc2nc(C)cc(C)n2n1 | -26.4% |  | 3.26 µM [rising, single point]
20 | COC(=O)c1ccc(-c2nc3ccccc3[nH]2)cc1 | 3.49% |  | 0.00731 µM [rising, full curve, poor fit]
21 | Cc1ccc(C(=O)O)cc1N1C(=O)c2cccc3c([N+](=O)[O-])ccc(c23)C1=O | -21.3% |  | 
22 | CCc1ccc(NC(=O)C(C)OC(=O)C2CCC(=O)N2)cc1 (stereo not drawn) | 6.12% |  | 
23 | COc1cc(OC)c(/C=C2\C(=O)Nc3ccccc32)c(OC)c1 | -12.9% | 0.291 µM [rising, partial curve, poor fit] | 
24 | CCOc1ccccc1N=C1SC(CC(=O)Nc2ccc(OC)cc2OC)C(=O)N1CCC1=CCCCC1 (stereo not drawn) |  |  | 29.1 µM [falling, single point]
25 | CCCCC(=O)Nc1ccc(NC(=O)c2cccnc2)cn1 | 33.4% | 4.61 µM [rising, partial curve] | 6.51 µM [rising, single point]
26 | COc1ccc(C(=O)/C=C/c2ccc(OC)c(O)c2)c(F)c1 | -15.4% |  | 2.31 µM [falling, partial curve]
27 | CCC1(C)CC(CC(=O)O)(c2ccccc2OC)CCO1 (stereo not drawn) |  |  | 20.6 µM [falling, partial curve]
28 | Cc1ccc2cc(CN(C(=O)c3ccncc3)C(C)C)c(=O)[nH]c2c1 | -14.7% | 6.51 µM [rising, single point] | 
29 | COCCn1c(SCC(=O)Nc2cc(C)on2)nc2ccccc21 | 80.5% |  | 1.64 µM [falling, single point]
30 | CC(=O)c1cnc2nc(C(F)(F)F)nn2c1C | 2.5% |  | 2.31 µM [falling, partial curve]
31 | COc1cc2c(cc1NC(=O)C1CCCO1)oc1ccccc12 (stereo not drawn) | -13.5% |  | 1.84 µM [rising, partial curve]
32 | CCOC(=O)C1CC(c2ccc(Cl)cc2)=NNC1=O (stereo not drawn) | -16.4% |  | 
33 | O=c1c(=Nc2ccccc2O)c(=O)c2ccccc12 | -48.1% | 1.64 µM [falling, partial curve, poor fit] | 1.3 µM [falling, full curve]
34 | COc1ccc(Br)cc1C(=O)NC(=S)Nc1cc(-c2nc3ccccc3[nH]2)ccc1C | 2.51% |  | 
35 | Cc1ccccc1C(=O)NC(=S)Nc1ccc(S(=O)(=O)N(C)c2ccccc2)cc1 | -1.25% | 0.326 µM [rising, full curve] | 1.46 µM [rising, full curve]
36 | COc1ccc(C(=O)NC2CC2)cc1OC1CCN(Cc2ccc(Cl)cc2)CC1 | 10.7% |  | 

Reformatted: 2 of the compounds above
Row	Compound	cell number change	AC50 [1]	AC50 [2]
35	Cc1ccccc1C(=O)NC(=S)Nc1ccc(S(=O)(=O)N(C)c2ccccc2)cc1	-1.25%	0.326 µM [rising, full curve]	1.46 µM [rising, full curve]
36	COc1ccc(C(=O)NC2CC2)cc1OC1CCN(Cc2ccc(Cl)cc2)CC1	10.7%		
